Reference: patent publication US20120315303A1, “METHODS AND INTRAVASCULAR TREATMENT DEVICES USING PACLITAXEL FOR TREATMENT OF ATHEROSCLEROSIS” (Medtronic Vascular, Inc., priority 2011, published 2012)
At least one structure is not confirmed: it was looked up by name or label, or the drawing left a doubt.

Key:
Format in all cases: cell-based
[1] = test system: Endothelin-1; assay: qRT-PCR Endothelin-1 expression in drug-treated, inflammatory cocktail stimulated SFA smooth muscle cells; conditions: quiescent SFA smooth muscle cells stimulated with FBS, TGF Beta and IL1beta, FIG. 14D
Procedure: (§1) FIG. 14 depicts differential effect of paclitaxel versus the Limus family of drugs on expression of cell cycle, proliferation and ECM target genes in SFA smooth muscle cells. Quiescent SFA smooth muscle cells were treated with of Paclitaxel, Zotarolimus or Sirolimus then stimulated with inflammatory cocktail consisting of FBS, TGF Beta and IL1beta. Relative gene expression levels were determined by qRT-PCR for each drug treated arm as calibrated against the unstimulated baseline control for (A) BTG2, (B) KLF4, (C) PEDF, (D) Endothelin-1, (E) Thrombospondin-1, and (F) Thrombospondin-3.
In a similar manner, the expression of Thrombospondin-1 and Thrombospondin-3 is inhibited by paciltaxel but not by sirolimus and zotarolimus. Taken together the data with regards to the differential effects of commercially employed, anti-proliferative drugs, such as paciltaxel and drugs of the limus family, on the expression of SFA disease target genes can highlight/point to wards the most beneficial therapeutic mode of application and treatment.

[2] = test system: KLF4; assay: qRT-PCR KLF4 expression in drug-treated, inflammatory cocktail stimulated SFA smooth muscle cells; conditions: quiescent SFA smooth muscle cells stimulated with FBS, TGF Beta and IL1beta, FIG. 14B
Procedure: as §1
(§2) Since the limus drugs have been known to affect the signaling via their effect on cell cycle inhibitors (CDKN1A and CDKN1B), we next studied their effects on the pertinent proliferative disease targets identified in this study. Specifically, we looked at BTG2, KLF4 and PEDF (FIGS. 14A, 14B, and 14C, respectively). […] The limus drugs, sirolimus and zotarolimus induced the expression of BTG2, KLF4 cell cycle inhibitors, but not of the proliferation PEDF inhibitor, which are previously unknown actions for these drugs.

[3] = test system: BTG2; assay: qRT-PCR BTG2 expression in drug-treated, inflammatory cocktail stimulated SFA smooth muscle cells; conditions: quiescent SFA smooth muscle cells stimulated with FBS, TGF Beta and IL1beta, FIG. 14A
Procedure: as §1, §2

[4] = test system: CDKN1A; assay: qRT-PCR CDKN1A gene expression in drug-treated SFA smooth muscle cells; conditions: SFA smooth muscle cells from normal donor tissue; qRT-PCR calibrated against unstimulated control; FIG. 13A
Procedure: FIG. 13 depicts effects of paclitaxel on cellular morphology, gene and protein expression. (A and B) SFA smooth muscle cells from normal donor tissue were treated with Paclitaxel, Everolimus or Sirolimus. Gene expression levels were determined by qRT-PCR for each drug arm calibrated against unstimulated control for (A) CDKN1A and (C) CTGF. (B) SMCs were exposed to Sirolimus or Paclitaxel, fixed and stained with Actin (red) and Ki67 (green). (D) SFA derived smooth muscle cells were treated with Paclitaxel, Everolimus or Sirolimus then stimulated with Colchicinne (CTGF a) or Angiotensin II (CTGF b). Protein levels were detected by western blot using antibodies against CTGF and beta actin. One representative blot of three replicates shown.
Obtaining samples from SFA arteries allowed us to generate SFA derived-smooth muscle cells and to examine the expression of genes of interest as ide12tified in the disease atherectomy samples. In particularly we investigated the transcriptional response to anti-proliferative drugs, e.g. paclitaxel and drugs from the limus family such as sirolimus, everolimus or zotarolimus. These drugs are currently employed in combination devices indicated for the treatment of coronary and peripheral disease, including drug eluting stents and drug eluting balloons. […]

SMILES: CO[C@H]1C[C@@H]2CC[C@@H](C)[C@@](O)(O2)C(=O)C(=O)N2CCCC[C@H]2C(=O)O[C@H]([C@H](C)C[C@@H]2CC[C@@H](O)[C@H](OC)C2)CC(=O)[C@H](C)/C=C(\C)[C@@H](O)[C@@H](OC)C(=O)[C@H](C)C[C@H](C)/C=C/C=C/C=C/1C [sirolimus]
- Endothelin-1 gene expression [1]: substantially upregulated
- KLF4 gene expression [2]: induced
- BTG2 gene expression [3]: induced
- CDKN1A gene expression [4]: up regulating
